Laboratory results as given in patent US12121500B2, “Inhibitors of Bunyaviridae and uses thereof” (priority 2020, dated 2024).

Tests used:
Vero cells = experiment: Quantitative cytotoxicity in Vero cells, crystal violet staining of EC50 plates; conditions: therapeutic index CC50/EC50, Vero cells after one day
HepDES19 = experiment: Cytotoxicity in HepDES19 cells, MTS assay; conditions: therapeutic index CC50/EC50, HepDES19 cells after three days

SMILES	TI Vero (Vero cells)	TI HepDES19 (HepDES19)
Cc1cc(O)c(=O)c(O)cc1C(=O)NCc1ccccc1 [Compound 388]	26.6	2.2
Cc1cc(O)c(=O)c(O)cc1C(=O)C1CCCCC1 [Compound 120]	16.0	2.7
CCCCCCSc1cccc(O)c(=O)c1O [Compound 840]	3.8	<1.0
C/C(=N\c1ccc(Cl)c(Cl)c1)c1c(C)cc(O)n(O)c1=O [Compound 670]	8.6	4.9
COC(=O)c1c(C)cc(O)c(=O)c(O)c1Br [Compound 335]	2.9	6.0
CC1=CC(O)N(O)C(O)=C1/C(C)=N/c1ccccc1N (stereo not drawn) [Compound 208]	<1.0	<1.0
CCCCSc1ccc(SCCCC)c(O)c(=O)c1O [Compound 694]	6.0	<1.0
CC[C@H](C)[C@H](NC(=O)OCC1c2ccccc2-c2ccccc21)C(=O)Sc1cccccc1=O [Compound 686]	1.0	<1.0
CCc1cccc(N=C(C)c2c(C)cc(=O)n(O)c2O)c1 [Compound 518]	6.0	4.6
CC(=O)c1c(C)cc(O)c(=O)c(O)c1-c1cccc2ccccc12 [Compound 331]	5.1	2.3
Cc1cc(O)c(=O)c(O)cc1C(=O)c1cccs1 [Compound 308]	402	47.8
C/C(=N\c1ccc(C(F)(F)F)cc1)c1c(C)cc(=O)n(O)c1O [Compound 517]	1.0	<1.0
Cc1cc(O)c(=O)c(O)cc1C(=O)NC(CCC(=O)OC(C)(C)C)C(=O)OC(C)(C)C (stereo not drawn) [Compound 867]	13.8	<1.0
CC(=O)c1c(C)cc(O)c(=O)c(O)c1Cl [Compound 368]	9.8	1.2
Cc1cc(O)c(=O)c(O)cc1C(=O)c1ccccc1 [Compound 111]	13.2	1.9
Cc1cc(O)c(=O)c(O)c(O)c1C(=O)c1ccc(-c2ccccc2)cc1 [Compound 362]	29.9	2.1
O=C1C=CC(=O)c2ccccc21 [Compound 327]	1.1	0.5
Cc1cc(O)c(=O)c(O)cc1C(=O)c1cccc(Br)c1 [Compound 359]	33.3	3.8
CC(=O)c1c(C)cc(O)c(=O)c(O)c1Br [Compound 320]	6.0	2.5
COC(=O)c1c(C)cc(O)c(=O)c(O)c1O [Compound 196]	10.5	0.3

SMILES	TI Vero (Vero cells)	TI HepDES19 (HepDES19)
Cc1cc(O)c(=O)c(O)cc1-c1ccccc1 [Compound 113]	24.3	4.6
CC(=O)c1c(C)cc(O)c(=O)c(O)c1-c1ccccc1 [Compound 330]	31.6	5.9
Cc1cc(O)c(=O)c(O)cc1C(=O)N1CCN(C(c2ccc(F)cc2)c2ccc(F)cc2)CC1 [Compound 1017]	6.8	<1.0
Cc1cc(O)c(=O)c(O)cc1C(=O)NCc1ccc(-c2ccccc2)cc1 [Compound 539]	16.1	<1.0
Cc1cc(O)c(=O)c(O)cc1C(=O)N1CCCCC1 [Compound 390]	21	2.5
O=c1c(O)ccc(-c2ccco2)cc1O [Compound 265]	16.2	1.7
C/C(=N\c1ccccc1Cl)c1c(C)cc(O)n(O)c1=O [Compound 668]	6.2	4.0
Cc1cc(O)c(=O)c(O)cc1C(=O)c1ccc(Br)cc1 [Compound 358]	27.8	1.4
Cc1cc(O)c(=O)c(O)cc1C(=O)c1ccc(-c2ccccc2)cc1 [Compound 118]	22.5	1.5
Cc1ccc(O)c(=O)c(O)c1 [Compound 210]	19.4	4.9
Cc1cc(O)c(=O)c(O)cc1C(=O)c1ccc(-c2ccncc2)cc1 [Compound 260]	7.9	1.4
C/C(=N\c1cccc(Oc2ccccc2)c1)c1c(C)cc(=O)n(O)c1O [Compound 515]	4.9	2.9
CSc1cccc(O)c(=O)c1O [Compound 385]	9.9	4.0
Cc1ccc(/C=C/C(=O)c2ccccc(=O)c2O)cc1 [Compound 340]	2.6	0.7
O=C(Cc1ccccc1)Sc1cccccc1=O [Compound 680]	1.0	<1.0
Cc1ccc(Sc2cccc(O)c(=O)c2O)cc1 [Compound 838]	23.6	1.5
Cc1cc(O)c(=O)c(O)cc1C(=O)Nc1ccccc1 [Compound 389]	28.4	3.0
CC(C)c1ccc(O)c(=O)c(O)c1 [Compound 46, β-thujaplicinol]	18.1	1.8
Cc1cc(O)c(=O)c(O)cc1C(=O)c1ccccc1O [Compound 311]	21.6	2.7
